Construct, isoform or probe ends are uncertain for at least one entry.
Test system: thrombin (human)
Assay: binding assay
Settings: exosite II; Clotting: 20 mM Tris, 150 mM NaCl, 5 mM KCl, 1 mM MgCl2, 1 mM CaCl2, pH 7.4, 12 nM thrombin, 25 C, 5 min; commercial protein; folded or branched …

Question: How did the Kd turn out when TAGTCCGTGGTAGGGCAGGTTGGGGTGACT [HD22] was run?
Answer: The Kd was 0.5 nM.
